Experimental data: paper PMC9499541, “Ait1 regulates TORC1 signaling and localization in budding yeast” (eLife, 2022)
These are yes or no findings as the source states them, for the method shown. Binding seen in cells or lysates may run through a third protein. Some binding calls cover weakened binding; strength is not graded here. Tags and fused reporters may be left off the sequences shown.

By UniProt entry, the sequences of proteins in these tests, tags left out.
UniProt P38873: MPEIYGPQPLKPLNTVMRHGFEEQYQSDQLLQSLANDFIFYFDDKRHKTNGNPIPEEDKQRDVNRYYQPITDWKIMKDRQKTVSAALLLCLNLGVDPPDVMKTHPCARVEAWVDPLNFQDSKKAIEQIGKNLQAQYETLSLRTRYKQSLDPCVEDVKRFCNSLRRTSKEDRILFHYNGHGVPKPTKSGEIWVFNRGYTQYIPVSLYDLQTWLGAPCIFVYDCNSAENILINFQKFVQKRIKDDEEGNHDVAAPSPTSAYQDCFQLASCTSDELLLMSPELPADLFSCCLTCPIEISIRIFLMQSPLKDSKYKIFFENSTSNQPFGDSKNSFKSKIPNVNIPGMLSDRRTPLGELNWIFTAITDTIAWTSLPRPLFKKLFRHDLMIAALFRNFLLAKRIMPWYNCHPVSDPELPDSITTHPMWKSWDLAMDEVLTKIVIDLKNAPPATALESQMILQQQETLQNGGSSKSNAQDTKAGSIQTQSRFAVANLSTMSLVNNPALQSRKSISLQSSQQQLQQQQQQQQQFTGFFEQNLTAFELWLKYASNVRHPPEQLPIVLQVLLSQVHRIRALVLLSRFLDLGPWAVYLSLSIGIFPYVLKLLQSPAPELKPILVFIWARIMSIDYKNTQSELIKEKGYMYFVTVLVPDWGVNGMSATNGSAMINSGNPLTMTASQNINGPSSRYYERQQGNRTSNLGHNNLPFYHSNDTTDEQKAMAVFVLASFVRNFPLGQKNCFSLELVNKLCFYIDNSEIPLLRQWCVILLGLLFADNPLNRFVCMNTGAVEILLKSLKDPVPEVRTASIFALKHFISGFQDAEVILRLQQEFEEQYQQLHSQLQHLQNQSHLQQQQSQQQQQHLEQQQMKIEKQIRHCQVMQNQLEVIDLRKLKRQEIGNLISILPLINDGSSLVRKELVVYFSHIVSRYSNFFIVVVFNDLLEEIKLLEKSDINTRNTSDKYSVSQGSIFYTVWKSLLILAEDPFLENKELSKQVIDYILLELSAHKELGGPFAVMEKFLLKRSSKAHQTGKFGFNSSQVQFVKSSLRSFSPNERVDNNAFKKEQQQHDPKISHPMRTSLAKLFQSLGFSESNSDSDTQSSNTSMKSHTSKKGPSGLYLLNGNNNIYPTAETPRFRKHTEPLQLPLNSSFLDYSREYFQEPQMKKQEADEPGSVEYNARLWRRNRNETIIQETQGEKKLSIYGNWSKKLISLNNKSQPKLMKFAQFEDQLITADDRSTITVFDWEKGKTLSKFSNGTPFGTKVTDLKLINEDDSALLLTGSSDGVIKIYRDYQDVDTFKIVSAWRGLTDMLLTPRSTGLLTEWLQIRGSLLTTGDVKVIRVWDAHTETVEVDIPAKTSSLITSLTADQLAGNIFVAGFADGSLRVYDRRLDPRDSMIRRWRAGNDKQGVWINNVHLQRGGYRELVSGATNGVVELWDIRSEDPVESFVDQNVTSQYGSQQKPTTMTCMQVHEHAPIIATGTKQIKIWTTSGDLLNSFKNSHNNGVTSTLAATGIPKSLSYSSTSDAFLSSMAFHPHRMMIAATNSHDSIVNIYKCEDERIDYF

T1: GFP-Ait1 (S. cerevisiae) (UniProt Q12301)
T1 sequence: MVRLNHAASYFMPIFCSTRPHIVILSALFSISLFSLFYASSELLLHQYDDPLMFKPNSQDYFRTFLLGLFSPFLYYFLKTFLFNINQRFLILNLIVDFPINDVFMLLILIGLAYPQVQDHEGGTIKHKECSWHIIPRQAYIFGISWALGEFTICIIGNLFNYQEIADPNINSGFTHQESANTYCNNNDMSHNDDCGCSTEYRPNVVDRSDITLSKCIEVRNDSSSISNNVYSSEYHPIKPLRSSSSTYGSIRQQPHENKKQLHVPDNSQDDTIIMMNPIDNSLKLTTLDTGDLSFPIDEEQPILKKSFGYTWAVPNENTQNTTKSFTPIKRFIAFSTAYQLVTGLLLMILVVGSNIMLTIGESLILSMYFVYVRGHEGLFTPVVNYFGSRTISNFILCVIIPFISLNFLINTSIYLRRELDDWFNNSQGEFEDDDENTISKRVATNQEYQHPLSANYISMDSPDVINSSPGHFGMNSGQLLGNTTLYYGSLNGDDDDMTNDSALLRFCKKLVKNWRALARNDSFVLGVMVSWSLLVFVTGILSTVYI

B1: GFP-Ait1 (natural protein, S. cerevisiae, UniProt Q12301 1-547, looked up)
chain: T1 sequence
notes: Ait1 (Ydl180w), GPCR-like protein of the vacuolar membrane, S. cerevisiae; The strain list is in Supplementary file 3; source: S. cerevisiae (W303) strain carrying GFP-Ait1, in lysate; not shown: GFP, N-terminal, kept
B2: Gtr1-myc (natural protein, S. cerevisiae, UniProt Q00582 1-310, looked up)
chain: MSSNNRKKLLLMGRSGSGKSSMRSIIFSNYSAFDTRRLGATIDVEHSHLRFLGNMTLNLWDCGGQDVFMENYFTKQKDHIFQMVQVLIHVFDVESTEVLKDIEIFAKALKQLRKYSPDAKIFVLLHKMDLVQLDKREELFQIMMKNLSETSSEFGFPNLIGFPTSIWDESLYKAWSQIVCSLIPNMSNHQSNLKKFKEIMNALEIILFERTTFLVICSSNGENSNENHDSSDNNNVLLDPKRFEKISNIMKNFKQSCTKLKSGFKTLILNNNIYVSELSSNMVCFIVLKDMNIPQELVLENIKKAKEFFQ
notes: Gtr1, small GTPase (homolog of RagA/B), S. cerevisiae; also called Gtr1/2; source: S. cerevisiae (W303) strain carrying Gtr1-myc, in lysate

Experiments:
[1] = molecular target: Kog1-FLAG (S. cerevisiae) (UniProt P38873); assay: co-IP; Kog1-FLAG immunopurified on anti-FLAG beads after DSP crosslinking; blot with anti-GFP and anti-FLAG; with and without amino acids, long-term amino acid and glucose starvation, also with 4x protease inhibitors
GFP-Ait1 (S. cerevisiae) = molecular target: T1, GFP-Ait1 (S. cerevisiae); assay: co-IP; GFP-Ait1 or GFP-Ait1C3v2 immunopurified on anti-GFP beads in nonionic detergent (digitonin) without a crosslinker; blot with anti-Myc and anti-GFP; log phase, 30 min amino acid starvation, long-term amino acid and glucose starvation

| Binder | binding [1] | binding (GFP-Ait1 (S. cerevisiae)) |
| --- | --- | --- |
| B1 | binds |  |
| B2 |  | binds |
